# In patent publication US8633207B2, “Quinazoline compounds and methods of use thereof” (Ambit Biosciences Corporation, priority 2010, dated 2014):
# Tested on: panel of distinct kinases, typically 359 or 386 kinases
# Test: Kinase selectivity score S(10) from competition binding panel
# Settings: number of kinases with inhibition of 90% or greater divided by number of distinct kinases tested
# Method: Competition binding assays used herein were developed, validated and performed as described in Fabian et al., Nature Biotechnology 2005, 23, 329-336. Kinases were produced as fusions to T7 phage (See, Fabian et al. or WO04/015142) or alternatively, the kinases were expressed in HEK-293 cells and subsequently tagged with DNA for PCR detection (See, WO08/005,310). For the binding assays, streptavidin-coated magnetic beads were treated with biotinylated affinity ligands for 30 min at rt to generate affinity resins. The liganded beads were blocked with excess biotin and washed with blocking buffer (SeaBlock (Pierce), 1% BSA, 0.05% Tween 20, 1 mM DTT) to remove unbound ligand and to reduce non-specific binding. Binding reactions were assembled by combining kinase, liganded affinity beads, and test compounds in 1× binding buffer (20% SeaBlock, 0.17×PBS, 0.05% Tween 20, 6 mM DTT). Test compounds were prepared as 100× stocks in DMSO and rapidly diluted into the aqueous environment. DMSO was added to control assays lacking a test compound. Primary screen interactions were performed in polypropylene 384-well plates in a final volume of 34 μL, while Kd determinations were performed in polystyrene 96-well plates in a final volume of 135 μL. The assay plates were incubated at room temperature with shaking for 1 hour, long enough for binding reactions to reach equilibrium, and the affinity beads were washed extensively with wash buffer (1×PBS, 0.05% Tween 20) to remove unbound protein. The beads were then resuspended in elution buffer (1×PBS, 0.05% Tween 20, 2 μM non-biotinylated affinity ligand) and incubated at room temperature with shaking for 30 min. The kinase concentration in the eluates was measured by quantitative PCR. Each kinase was tested individually against each compound. Kds were determined using eleven serial threefold dilutions. A selectivity score, which is a quantitative measure of selectivity of a compound against a panel of enzymes, may be calculated for a compound by dividing the number of enzymes for which a compound meets a set criteria, (for example, a binding constant of 100 nM or less), by the total number of enzymes tested.
row,SMILES,S-Score: S(10) at 10 μM
1,"Cc1cc(Nc2nc(C(F)(F)c3ncc(F)cn3)nc3ccccc23)n[nH]1 [Example 3, 2-(difluoro(5-fluoropyrimidin-2-yl)methyl)-N-(5-methyl-1H-pyrazol-3-yl)quinazolin-4-amine]",D (D > 0.5)
2,"Cc1cc(Nc2nc(C(F)(F)c3ccc(F)cn3)nc3c(C(N)=O)cccc23)n[nH]1 [Example 39, 2-(difluoro(5-fluoropyridin-2-yl)methyl)-4-((5-methyl-1H-pyrazol-3-yl)amino)quinazoline-8-carboxamide]",C (0.4 < C ≦ 0.5)
3,"Fc1ccc(C(F)(F)c2nc(Nc3nc[nH]n3)c3ccccc3n2)nc1 [Example 31, 2-(difluoro(5-fluoropyridin-2-yl)methyl)-N-(1H-1,2,4-triazol-3-yl)quinazolin-4-amine]",A (A ≦ 0.3)
4,"Cc1cc(Nc2nc(C(F)(F)c3ccc(F)cn3)nc3c(N)cccc23)n[nH]1 [Example 50, 2-(difluoro(5-fluoropyridin-2-yl)methyl)-N4-(5-methyl-1H-pyrazol-3-yl)quinazoline-4,8-diamine]",D (D > 0.5)
5,"Cc1cc(Nc2nc(C(F)(F)c3ccc(F)cn3)nc3c(C(F)(F)F)cccc23)n[nH]1 [Example 33, 2-(difluoro(5-fluoropyridin-2-yl)methyl)-N-(5-methyl-1H-pyrazol-3-yl)-8-(trifluoromethyl)quinazolin-4-amine]",A (A ≦ 0.3)
6,"Cc1cc(Nc2nc(C(F)(F)c3ccc(F)cn3)nc3c(Cl)cccc23)n[nH]1 [Example 13, 8-chloro-2-(difluoro(5-fluoropyridin-2-yl)methyl)-N-(5-methyl-1H-pyrazol-3-yl)quinazolin-4-amine]",B (0.3 < B ≦ 0.4)
7,"Cc1cnc(Nc2nc(C(F)(F)c3ccc(F)cn3)nc3ccccc23)s1 [Example 30, N-(2-(difluoro(5-fluoropyridin-2-yl)methyl)quinazolin-4-yl)-5-methylthiazol-2-amine]",A (A ≦ 0.3)
